Experiment [1] has as its target Bromodomain-containing protein 9 (BRD9) (human (endogenous in G401)) (UniProt Q9H8M2). The experiment is described as follows: affinity purification with mass spectrometry; IP with antibodies to endogenous BRD9, ARID1A or PBRM1 from nuclear extract diluted to 150 mM salt, overnight at 4 °C, Protein G Dynabeads, RIPA washes, whole gel lane to mass spectrometry; four RT cell lines, three SMARCB1-WT cell lines, G401 without or with SMARCB1 re-expression.

Protein sequences, listed by entry. Tags and fused reporters are not part of them.
UniProt Q9H8M2: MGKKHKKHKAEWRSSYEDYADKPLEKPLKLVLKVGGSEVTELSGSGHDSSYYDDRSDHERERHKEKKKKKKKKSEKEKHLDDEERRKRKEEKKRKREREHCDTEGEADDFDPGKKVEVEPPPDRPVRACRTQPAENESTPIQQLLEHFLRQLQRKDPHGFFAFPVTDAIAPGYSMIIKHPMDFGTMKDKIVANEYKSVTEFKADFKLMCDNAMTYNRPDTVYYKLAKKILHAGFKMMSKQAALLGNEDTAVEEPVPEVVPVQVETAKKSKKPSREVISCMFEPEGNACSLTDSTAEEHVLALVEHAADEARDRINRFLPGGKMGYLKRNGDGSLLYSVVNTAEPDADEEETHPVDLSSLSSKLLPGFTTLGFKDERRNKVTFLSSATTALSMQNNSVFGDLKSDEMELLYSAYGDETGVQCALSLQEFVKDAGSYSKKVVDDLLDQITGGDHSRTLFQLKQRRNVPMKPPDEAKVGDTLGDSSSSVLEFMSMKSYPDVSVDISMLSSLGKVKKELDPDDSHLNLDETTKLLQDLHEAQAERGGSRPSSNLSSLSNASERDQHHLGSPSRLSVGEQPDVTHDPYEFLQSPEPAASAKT
UniProt Q86U86: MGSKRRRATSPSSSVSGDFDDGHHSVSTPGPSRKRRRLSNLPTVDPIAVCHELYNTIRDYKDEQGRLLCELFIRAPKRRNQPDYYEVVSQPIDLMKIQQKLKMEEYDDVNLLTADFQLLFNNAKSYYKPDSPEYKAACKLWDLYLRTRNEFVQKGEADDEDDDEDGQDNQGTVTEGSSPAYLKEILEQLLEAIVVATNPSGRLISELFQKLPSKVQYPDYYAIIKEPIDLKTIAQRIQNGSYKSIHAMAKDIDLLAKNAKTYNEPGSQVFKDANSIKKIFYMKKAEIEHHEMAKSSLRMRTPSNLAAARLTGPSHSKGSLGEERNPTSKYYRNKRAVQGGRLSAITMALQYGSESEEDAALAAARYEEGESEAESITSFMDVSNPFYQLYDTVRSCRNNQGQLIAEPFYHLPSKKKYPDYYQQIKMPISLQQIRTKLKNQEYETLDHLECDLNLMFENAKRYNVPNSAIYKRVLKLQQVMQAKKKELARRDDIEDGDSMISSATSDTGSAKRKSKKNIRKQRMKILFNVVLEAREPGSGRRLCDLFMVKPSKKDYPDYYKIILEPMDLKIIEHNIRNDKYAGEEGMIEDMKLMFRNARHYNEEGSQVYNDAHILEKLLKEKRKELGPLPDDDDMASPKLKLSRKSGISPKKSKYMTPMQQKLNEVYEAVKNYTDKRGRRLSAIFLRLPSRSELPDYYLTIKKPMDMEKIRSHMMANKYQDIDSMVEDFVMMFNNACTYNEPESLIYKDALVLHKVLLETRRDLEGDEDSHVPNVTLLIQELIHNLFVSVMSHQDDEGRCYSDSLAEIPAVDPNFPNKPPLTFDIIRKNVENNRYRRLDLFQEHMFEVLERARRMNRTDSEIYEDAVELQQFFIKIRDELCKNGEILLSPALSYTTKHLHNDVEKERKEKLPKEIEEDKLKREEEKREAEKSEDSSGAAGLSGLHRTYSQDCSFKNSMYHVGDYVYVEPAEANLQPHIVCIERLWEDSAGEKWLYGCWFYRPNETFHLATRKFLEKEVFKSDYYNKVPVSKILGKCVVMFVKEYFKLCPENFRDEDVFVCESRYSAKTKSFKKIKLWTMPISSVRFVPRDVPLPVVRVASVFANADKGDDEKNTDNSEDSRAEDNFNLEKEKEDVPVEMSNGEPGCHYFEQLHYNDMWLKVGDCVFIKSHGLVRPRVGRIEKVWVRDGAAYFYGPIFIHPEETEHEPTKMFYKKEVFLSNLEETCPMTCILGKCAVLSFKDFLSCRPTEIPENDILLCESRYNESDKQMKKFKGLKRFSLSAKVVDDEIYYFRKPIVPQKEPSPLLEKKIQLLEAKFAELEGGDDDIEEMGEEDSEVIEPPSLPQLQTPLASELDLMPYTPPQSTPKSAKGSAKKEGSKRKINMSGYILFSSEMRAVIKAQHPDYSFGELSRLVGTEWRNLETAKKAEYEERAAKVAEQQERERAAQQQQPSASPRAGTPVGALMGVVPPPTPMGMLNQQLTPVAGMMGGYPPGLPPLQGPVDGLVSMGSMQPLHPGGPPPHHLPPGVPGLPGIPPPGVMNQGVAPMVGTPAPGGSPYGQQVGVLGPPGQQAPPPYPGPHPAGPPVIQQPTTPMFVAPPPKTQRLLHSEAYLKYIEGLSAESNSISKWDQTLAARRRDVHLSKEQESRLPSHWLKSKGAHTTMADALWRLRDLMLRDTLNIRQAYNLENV
UniProt O96019: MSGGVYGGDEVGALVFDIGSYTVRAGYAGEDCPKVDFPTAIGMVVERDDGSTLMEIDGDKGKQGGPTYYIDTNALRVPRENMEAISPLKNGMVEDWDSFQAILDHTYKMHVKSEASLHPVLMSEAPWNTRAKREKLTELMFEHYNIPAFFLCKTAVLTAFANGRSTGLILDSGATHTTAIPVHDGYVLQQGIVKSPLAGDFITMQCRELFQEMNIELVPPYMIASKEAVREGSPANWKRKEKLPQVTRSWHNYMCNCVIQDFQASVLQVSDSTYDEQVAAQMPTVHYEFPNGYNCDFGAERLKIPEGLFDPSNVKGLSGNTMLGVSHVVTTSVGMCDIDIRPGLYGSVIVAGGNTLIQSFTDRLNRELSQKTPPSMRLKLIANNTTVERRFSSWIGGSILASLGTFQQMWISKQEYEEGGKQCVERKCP
UniProt Q92922: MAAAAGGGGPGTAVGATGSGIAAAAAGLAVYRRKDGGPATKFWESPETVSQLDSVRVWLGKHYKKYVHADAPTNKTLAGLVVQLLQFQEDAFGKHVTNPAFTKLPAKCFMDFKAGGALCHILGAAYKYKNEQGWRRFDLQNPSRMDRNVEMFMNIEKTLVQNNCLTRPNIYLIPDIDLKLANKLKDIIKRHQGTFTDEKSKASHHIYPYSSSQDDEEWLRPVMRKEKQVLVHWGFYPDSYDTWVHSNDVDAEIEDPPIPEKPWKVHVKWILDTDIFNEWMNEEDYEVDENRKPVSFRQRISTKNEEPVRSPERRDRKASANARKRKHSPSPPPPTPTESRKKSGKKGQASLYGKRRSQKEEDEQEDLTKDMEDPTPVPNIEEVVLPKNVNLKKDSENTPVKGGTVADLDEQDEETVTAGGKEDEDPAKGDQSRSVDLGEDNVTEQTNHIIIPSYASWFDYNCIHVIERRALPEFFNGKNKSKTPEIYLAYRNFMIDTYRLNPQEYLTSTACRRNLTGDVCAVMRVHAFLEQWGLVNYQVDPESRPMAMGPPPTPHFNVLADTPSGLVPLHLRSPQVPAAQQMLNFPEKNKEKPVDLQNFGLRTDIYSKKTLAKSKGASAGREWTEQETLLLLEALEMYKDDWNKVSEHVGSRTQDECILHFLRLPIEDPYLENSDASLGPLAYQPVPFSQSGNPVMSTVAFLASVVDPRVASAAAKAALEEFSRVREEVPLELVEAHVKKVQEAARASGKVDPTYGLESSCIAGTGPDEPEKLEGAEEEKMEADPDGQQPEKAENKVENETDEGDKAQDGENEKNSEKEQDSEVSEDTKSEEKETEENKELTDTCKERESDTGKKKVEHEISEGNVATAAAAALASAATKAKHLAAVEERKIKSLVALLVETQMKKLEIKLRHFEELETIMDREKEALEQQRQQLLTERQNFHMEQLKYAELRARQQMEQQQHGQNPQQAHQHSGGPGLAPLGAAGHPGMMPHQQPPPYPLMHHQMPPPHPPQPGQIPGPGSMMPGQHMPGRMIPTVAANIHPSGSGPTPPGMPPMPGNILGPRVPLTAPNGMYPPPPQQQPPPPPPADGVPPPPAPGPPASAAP
UniProt Q9NZM4: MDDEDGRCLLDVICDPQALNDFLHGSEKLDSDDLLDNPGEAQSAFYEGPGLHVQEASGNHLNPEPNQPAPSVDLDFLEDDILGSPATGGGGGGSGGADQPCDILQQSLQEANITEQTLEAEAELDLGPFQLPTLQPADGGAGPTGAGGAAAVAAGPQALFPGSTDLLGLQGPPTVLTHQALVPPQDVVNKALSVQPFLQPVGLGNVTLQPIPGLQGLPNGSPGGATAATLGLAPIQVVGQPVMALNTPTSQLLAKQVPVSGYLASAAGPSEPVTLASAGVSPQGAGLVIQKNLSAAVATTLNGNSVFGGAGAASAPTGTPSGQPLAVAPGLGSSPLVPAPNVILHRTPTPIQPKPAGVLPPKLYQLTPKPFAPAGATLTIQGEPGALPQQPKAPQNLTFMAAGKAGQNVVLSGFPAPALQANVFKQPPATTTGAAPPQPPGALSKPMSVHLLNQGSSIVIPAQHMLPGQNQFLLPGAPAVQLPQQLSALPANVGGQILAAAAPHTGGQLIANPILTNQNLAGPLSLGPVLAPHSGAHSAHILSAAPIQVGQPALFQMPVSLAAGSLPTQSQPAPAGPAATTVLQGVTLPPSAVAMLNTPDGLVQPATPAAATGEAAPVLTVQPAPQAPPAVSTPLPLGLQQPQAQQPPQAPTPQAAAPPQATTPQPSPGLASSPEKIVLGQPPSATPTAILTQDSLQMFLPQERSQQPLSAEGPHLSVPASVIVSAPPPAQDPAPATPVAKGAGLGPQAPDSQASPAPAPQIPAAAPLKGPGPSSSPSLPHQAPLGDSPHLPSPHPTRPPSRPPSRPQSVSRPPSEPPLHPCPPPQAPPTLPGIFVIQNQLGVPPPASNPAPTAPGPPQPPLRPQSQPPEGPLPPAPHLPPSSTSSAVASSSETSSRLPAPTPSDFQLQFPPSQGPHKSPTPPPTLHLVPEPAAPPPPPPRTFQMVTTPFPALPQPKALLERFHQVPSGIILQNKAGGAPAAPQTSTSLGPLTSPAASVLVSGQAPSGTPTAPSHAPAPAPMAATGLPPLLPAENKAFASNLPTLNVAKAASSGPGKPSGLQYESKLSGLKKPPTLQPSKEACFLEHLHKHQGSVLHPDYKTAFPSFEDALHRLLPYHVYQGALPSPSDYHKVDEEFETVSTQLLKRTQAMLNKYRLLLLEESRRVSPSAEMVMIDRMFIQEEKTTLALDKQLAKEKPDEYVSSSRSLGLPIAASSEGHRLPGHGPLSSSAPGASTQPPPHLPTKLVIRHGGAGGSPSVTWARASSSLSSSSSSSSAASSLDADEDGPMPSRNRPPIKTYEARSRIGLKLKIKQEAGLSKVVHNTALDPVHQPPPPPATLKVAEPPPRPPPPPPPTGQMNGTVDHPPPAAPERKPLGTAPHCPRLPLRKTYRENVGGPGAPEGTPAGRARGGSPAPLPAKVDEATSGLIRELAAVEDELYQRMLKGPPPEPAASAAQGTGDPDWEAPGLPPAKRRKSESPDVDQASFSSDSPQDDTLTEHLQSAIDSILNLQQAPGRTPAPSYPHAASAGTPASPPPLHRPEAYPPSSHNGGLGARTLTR
UniProt Q9NPI1: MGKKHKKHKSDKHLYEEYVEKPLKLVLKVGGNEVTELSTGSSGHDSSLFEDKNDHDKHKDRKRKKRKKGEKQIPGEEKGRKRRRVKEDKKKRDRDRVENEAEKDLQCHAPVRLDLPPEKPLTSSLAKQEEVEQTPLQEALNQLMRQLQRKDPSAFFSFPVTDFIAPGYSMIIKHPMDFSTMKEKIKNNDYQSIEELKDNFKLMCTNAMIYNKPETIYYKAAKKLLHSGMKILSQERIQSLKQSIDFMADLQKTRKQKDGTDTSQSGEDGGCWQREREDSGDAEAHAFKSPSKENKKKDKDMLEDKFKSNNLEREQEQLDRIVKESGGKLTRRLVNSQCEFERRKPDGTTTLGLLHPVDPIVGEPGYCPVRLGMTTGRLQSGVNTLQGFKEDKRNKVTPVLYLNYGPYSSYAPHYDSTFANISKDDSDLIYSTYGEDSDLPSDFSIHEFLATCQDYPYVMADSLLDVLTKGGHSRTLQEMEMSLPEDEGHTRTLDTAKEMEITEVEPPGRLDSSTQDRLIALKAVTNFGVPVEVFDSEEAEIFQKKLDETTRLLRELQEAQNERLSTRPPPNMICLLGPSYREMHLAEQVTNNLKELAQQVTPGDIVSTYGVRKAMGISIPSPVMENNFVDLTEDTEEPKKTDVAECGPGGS
UniProt Q96GM5: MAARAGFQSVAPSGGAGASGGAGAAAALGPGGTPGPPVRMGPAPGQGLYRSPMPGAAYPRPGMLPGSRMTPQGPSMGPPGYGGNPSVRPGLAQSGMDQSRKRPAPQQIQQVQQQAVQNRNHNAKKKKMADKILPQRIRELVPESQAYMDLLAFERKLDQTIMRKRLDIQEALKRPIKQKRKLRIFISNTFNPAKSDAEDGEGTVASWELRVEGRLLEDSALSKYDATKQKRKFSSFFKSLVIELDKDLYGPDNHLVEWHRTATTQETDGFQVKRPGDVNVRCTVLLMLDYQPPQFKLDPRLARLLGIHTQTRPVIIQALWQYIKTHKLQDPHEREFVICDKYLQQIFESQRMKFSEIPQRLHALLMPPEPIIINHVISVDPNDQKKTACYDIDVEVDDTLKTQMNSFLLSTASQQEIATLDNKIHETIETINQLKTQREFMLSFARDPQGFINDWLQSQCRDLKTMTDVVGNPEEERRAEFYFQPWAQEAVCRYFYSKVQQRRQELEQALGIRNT

For experiment [2], the target named is BRD9 with a C-terminal HA tag, exogenously expressed in G401 (UniProt Q9H8M2). The experiment is described as follows: affinity purification with mass spectrometry; HA IP of exogenously expressed BRD9 with a C-terminal HA tag in G401 cells, mass spectrometry.
Experiment [3] addresses PBRM1 (human (endogenous in G401)) (UniProt Q86U86). Kind of experiment: affinity purification with mass spectrometry; IP with antibodies to endogenous BRD9, ARID1A or PBRM1 from nuclear extract diluted to 150 mM salt, overnight at 4 °C, Protein G Dynabeads, RIPA washes, whole gel lane to mass spectrometry; four RT cell lines, three SMARCB1-WT cell lines, G401 without or with SMARCB1 re-expression.

The target in experiment [4] is ARID1A (human (endogenous in G401)) (UniProt O14497). The description is as above.

Results are given in words; binding and its absence hold for the method and conditions named. In cells and extracts the contact can be indirect. Here binding means that the protein was enriched with, or labelled near, the bait; the list need not be complete. A no says only that the protein was not detected with the bait.

The record followed here is PMC6479050.

Consider “SMARCE1 (BAF57) (from UniProt Q969G3 1-411)”, for which the binding entry in experiment [1] and in experiment [2] was “no binding” each time.

Consider “SMARCA4 (BRG1) (from UniProt P51532 1-1647)”, for which the binding entry in experiment [1] and in experiment [2] was “binds” throughout.

For “Bromodomain-containing protein 9 (BRD9) (from UniProt Q9H8M2 1-597)”, the binding result in experiment [3] and in experiment [4] was “no binding” each time.

As to “SMARCB1 (also known as SNF5, INI1, and BAF47), re-expressed in G401 (from UniProt Q12824 1-385)”, the binding entry in experiment [1] is recorded as “no binding”.

For the substance “ACTL6A (BAF53A) (from UniProt O96019 1-429)”, the binding result in experiment [1] and in experiment [2] was “binds” throughout.

Turning to “SMARCC2 (BAF170) (from UniProt Q8TAQ2 1-1214)”, the binding result in experiment [1] and in experiment [2] was “no binding” in each case.

On to PBRM1 (from UniProt Q86U86 1-1689), for which the binding result in experiment [1] and in experiment [2] was “no binding” throughout.

Take “SMARCC1 (BAF155) (from UniProt Q92922 1-1105)”: the binding result in experiment [1] and in experiment [2] was “binds” throughout.

Regarding “GLTSCR1 (also known as BICRA, BRD4 Interacting Chromatin-Remodeling Complex Associated Protein) (from UniProt Q9NZM4 1-1560)”, the binding result is recorded as “no binding” in experiment [3], “binds” in experiment [1], “no binding” in experiment [4] and “binds” in experiment [2].

For the substance BRD7 (from UniProt Q9NPI1 1-651), the binding entry in experiment [1] and in experiment [2] was “no binding” in each case.

As for “SMARCD1 (BAF60A) (from UniProt Q96GM5 1-515)”, the binding entry in experiment [1] and in experiment [2] was “binds” throughout.

Turning to “SMARCA2 (BRM) (from UniProt P51531 1-1590)”, the binding result in experiment [1] and in experiment [2] was “binds” in each case.
